# Some of the results follow. The data scatter; read single values as rough.
# By UniProt entry, the sequences of proteins in these tests, tags left out. Where a name states a change or a piece, a line headed by the entry shows the natural chain unless it says otherwise.
# UniProt Q9Y2U8: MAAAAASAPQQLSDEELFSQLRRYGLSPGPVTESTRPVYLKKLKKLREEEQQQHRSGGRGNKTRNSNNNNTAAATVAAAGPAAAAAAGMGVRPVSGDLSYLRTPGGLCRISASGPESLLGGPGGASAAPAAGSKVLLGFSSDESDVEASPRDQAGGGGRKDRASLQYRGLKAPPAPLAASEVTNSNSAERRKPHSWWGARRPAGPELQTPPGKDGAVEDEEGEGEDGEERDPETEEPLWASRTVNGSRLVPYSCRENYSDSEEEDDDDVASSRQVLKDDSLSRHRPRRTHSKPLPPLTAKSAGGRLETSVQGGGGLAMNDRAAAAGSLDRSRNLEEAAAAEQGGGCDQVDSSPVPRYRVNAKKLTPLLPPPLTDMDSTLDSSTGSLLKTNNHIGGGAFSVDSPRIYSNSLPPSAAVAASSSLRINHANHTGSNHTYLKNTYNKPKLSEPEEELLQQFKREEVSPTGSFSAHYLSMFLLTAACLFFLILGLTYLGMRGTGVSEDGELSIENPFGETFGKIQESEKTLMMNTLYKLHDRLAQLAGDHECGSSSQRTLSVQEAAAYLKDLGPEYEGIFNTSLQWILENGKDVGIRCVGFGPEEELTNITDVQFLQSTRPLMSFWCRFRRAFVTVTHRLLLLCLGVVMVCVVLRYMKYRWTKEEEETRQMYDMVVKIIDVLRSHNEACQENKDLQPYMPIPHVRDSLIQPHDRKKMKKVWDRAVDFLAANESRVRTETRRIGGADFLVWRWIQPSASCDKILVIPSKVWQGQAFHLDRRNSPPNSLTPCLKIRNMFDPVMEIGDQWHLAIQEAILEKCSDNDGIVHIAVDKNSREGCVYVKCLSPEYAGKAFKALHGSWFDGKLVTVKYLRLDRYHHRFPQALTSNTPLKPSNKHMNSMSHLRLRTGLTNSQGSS
# UniProt Q8NG31: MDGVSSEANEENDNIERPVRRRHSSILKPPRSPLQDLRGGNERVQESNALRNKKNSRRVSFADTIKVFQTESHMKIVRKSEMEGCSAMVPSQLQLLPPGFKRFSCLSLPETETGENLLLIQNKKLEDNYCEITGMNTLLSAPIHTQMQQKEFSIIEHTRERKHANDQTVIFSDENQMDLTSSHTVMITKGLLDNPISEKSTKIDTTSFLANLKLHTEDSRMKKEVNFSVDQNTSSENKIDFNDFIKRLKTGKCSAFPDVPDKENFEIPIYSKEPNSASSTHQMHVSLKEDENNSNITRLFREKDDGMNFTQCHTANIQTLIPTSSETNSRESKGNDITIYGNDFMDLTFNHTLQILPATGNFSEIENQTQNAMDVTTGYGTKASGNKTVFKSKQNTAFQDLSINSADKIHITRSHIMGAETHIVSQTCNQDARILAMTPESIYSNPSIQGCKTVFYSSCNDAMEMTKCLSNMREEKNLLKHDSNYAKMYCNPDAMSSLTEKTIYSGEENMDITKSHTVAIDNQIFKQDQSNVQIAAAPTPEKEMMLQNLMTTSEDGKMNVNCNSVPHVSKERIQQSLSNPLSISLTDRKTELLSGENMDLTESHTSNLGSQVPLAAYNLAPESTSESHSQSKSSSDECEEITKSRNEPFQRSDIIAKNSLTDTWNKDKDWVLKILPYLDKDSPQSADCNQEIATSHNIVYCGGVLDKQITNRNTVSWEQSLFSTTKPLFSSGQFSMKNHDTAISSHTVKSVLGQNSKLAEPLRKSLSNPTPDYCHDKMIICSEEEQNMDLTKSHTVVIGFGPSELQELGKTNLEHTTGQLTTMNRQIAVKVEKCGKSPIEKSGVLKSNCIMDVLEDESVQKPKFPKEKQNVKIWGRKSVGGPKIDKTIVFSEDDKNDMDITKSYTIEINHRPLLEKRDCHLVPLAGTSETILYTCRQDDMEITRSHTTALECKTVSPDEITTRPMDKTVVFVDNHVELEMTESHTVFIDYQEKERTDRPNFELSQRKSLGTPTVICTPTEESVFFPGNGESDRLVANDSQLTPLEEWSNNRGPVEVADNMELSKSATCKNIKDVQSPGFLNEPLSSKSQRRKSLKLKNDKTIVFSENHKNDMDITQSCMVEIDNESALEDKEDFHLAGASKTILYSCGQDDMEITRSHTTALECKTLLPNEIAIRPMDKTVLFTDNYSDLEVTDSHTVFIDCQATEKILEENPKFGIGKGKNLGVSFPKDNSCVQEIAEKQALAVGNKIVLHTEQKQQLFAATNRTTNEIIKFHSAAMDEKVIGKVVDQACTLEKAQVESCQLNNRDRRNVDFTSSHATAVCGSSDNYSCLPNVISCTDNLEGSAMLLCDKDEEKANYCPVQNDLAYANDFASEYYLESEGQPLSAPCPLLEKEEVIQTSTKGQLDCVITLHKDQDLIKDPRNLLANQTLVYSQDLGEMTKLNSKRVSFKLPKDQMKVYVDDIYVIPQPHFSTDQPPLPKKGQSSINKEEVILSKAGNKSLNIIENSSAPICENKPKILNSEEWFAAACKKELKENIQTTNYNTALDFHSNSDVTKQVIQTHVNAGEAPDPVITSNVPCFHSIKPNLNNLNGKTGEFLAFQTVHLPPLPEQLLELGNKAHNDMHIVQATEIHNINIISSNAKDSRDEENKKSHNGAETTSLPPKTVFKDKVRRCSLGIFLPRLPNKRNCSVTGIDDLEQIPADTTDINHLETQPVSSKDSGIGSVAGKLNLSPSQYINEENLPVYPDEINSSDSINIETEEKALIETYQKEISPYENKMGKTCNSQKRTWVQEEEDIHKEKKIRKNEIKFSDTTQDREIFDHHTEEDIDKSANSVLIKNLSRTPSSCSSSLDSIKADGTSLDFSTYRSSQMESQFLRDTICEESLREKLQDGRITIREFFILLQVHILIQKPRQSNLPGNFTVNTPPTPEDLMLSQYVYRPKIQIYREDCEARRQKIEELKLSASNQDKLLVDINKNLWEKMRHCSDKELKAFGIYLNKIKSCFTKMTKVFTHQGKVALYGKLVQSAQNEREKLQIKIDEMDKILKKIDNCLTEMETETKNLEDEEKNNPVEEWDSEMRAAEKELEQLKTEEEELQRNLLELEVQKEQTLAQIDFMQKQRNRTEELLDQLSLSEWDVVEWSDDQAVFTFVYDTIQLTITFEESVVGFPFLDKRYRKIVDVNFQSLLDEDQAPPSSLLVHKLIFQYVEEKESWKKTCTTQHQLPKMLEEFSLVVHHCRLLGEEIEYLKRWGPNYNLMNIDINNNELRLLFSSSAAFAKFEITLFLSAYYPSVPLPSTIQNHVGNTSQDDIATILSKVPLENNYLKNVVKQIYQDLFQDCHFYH
# UniProt Q9BW19: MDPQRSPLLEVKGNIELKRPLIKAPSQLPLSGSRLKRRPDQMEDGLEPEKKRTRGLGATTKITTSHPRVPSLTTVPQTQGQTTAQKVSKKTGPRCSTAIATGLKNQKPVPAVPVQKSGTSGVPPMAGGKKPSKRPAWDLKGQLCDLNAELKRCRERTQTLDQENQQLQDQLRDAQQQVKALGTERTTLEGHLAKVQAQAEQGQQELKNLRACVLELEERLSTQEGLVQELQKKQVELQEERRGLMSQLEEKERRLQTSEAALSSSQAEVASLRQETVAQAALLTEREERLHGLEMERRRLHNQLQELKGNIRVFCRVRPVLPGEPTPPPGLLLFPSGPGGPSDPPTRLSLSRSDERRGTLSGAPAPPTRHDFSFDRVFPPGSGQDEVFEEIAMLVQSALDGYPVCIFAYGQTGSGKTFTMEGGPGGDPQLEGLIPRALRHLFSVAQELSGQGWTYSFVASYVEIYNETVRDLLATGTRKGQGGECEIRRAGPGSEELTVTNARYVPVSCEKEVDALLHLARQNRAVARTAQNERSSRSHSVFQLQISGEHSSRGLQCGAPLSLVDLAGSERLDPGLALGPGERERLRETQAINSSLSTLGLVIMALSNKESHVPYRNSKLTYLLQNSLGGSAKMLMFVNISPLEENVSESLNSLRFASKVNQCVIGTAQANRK
# UniProt Q8NC56: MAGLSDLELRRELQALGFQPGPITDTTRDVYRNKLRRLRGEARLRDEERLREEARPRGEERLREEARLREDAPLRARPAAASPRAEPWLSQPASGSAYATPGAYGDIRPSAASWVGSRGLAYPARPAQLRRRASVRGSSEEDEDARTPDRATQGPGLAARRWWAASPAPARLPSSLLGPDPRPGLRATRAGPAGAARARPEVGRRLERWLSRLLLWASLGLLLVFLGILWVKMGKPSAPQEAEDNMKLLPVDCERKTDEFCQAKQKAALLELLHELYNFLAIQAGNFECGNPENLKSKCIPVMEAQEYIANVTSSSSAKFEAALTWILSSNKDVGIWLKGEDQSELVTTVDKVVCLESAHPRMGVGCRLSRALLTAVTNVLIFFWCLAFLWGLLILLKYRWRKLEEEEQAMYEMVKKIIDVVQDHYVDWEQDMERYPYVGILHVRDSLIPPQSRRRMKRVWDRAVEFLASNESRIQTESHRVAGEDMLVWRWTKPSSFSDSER
# UniProt Q92615, whole entry, looked up: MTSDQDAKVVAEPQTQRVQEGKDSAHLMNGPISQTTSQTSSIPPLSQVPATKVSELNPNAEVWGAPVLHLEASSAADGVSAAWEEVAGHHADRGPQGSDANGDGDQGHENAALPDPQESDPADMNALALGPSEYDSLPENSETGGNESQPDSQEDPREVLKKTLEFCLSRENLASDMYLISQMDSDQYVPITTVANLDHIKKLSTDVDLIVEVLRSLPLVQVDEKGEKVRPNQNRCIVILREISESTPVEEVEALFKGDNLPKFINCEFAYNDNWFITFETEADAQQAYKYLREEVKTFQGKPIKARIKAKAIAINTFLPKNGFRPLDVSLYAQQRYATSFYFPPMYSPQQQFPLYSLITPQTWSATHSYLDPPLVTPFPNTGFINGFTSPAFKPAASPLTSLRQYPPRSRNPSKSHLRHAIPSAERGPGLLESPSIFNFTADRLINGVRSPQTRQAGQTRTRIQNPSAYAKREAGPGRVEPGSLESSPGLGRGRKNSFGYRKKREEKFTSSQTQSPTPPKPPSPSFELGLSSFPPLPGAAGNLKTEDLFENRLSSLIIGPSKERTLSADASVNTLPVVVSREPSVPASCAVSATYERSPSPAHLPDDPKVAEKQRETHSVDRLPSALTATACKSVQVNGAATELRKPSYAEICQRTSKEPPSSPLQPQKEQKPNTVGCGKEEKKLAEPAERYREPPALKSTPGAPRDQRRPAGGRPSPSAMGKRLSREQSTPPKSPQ
# UniProt P36776: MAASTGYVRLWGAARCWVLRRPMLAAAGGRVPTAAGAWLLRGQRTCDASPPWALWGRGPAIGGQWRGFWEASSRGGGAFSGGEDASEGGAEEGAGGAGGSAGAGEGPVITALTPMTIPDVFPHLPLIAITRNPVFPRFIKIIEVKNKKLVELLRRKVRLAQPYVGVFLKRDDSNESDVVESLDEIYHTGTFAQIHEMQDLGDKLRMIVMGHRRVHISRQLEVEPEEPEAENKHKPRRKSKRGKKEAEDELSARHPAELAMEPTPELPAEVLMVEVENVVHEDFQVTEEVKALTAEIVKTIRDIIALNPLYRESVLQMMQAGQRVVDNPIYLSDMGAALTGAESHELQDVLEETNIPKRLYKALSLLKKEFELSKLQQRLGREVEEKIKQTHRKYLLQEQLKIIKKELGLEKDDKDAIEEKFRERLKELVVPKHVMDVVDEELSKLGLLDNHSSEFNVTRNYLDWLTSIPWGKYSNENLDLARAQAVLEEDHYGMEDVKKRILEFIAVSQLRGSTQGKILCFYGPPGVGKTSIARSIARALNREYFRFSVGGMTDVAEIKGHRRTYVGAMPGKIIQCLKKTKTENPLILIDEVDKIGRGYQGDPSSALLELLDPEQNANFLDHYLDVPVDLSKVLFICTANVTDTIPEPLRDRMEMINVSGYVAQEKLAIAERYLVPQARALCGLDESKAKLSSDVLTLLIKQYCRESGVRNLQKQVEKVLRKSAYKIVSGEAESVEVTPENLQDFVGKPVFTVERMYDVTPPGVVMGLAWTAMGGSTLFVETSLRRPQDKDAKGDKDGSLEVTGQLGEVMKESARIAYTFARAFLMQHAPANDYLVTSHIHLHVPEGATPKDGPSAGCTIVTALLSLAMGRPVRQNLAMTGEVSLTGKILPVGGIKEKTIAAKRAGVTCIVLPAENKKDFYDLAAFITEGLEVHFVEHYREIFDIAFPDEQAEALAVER
# UniProt Q1ED39: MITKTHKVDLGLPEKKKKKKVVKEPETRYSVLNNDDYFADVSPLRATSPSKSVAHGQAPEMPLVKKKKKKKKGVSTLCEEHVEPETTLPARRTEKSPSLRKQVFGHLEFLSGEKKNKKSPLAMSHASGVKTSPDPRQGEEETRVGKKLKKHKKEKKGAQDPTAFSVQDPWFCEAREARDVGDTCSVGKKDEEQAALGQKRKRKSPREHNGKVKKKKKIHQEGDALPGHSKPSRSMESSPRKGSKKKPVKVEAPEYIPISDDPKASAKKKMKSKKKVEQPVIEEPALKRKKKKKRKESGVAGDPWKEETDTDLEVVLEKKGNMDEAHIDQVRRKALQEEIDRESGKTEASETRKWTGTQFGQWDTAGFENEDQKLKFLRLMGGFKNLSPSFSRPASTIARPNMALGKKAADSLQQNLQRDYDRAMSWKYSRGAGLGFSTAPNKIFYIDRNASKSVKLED
# How the values were obtained:
# [1] = compound: ClCC(=O)N[C@@H]1CCCc2ccccc12; assay: log2 mean competition ratio of IA-DTB cysteine labelling (DMSO/compound) (log2 ratio); higher = stronger cysteine engagement by compound; conditions: treatment time: 4 h, cell line lysate: HEK293T
# Experimental: (§1)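 IA-DTB competitive cysteine chemoproteomics in HEK293T RIPA lysate. Lysates were treated with compound 29 or 30 at 50 or 200 µM for 4 h, then IA-DTB (500 µM, 1 h), trypsin-digested, NeutrAvidin-enriched and analysed by diaPASEF. Competition ratio = intensity DMSO / intensity compound (n=4 treated, n=64 DMSO); binding: mean log2 CR ≥ 1 and p ≤ 0.05 plus QC filters. Target is the cysteine site.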
# [2] = compound: ClCC(=O)N[C@H]1CCCc2ccccc12; assay: as above; conditions: treatment time: 4 h, cell line lysate: HEK293T
# Experimental: as §1
Target,log2 mean competition ratio ([1]; 50 µM),log2 mean competition ratio ([1]; 200 µM),log2 mean competition ratio ([2]; 50 µM),log2 mean competition ratio ([2]; 200 µM)
LOC102724159 C24,0.523,0.168,0.781,0.302
LEMD3 C754 (UniProt Q9Y2U8),0.0865,0.114,0.208,0.0921
KMT2B C1268 (UniProt Q9UMN6),-0.18,-0.0888,-0.369,0.0557
LIMCH1 C863 (UniProt Q9UPQ0),-0.118,-0.0108,-0.152,0.13
KLHL7 C306 (UniProt Q8IXQ5),0.0202,-0.078,-0.2,-0.218
KMT2C C473 (UniProt Q8NEZ4),0.0945,-0.0357,0.293,-0.0752
LIN28B C107 (UniProt Q6ZN17),0.0976,0.0286,0.227,0.0246
LIG3 C499 (UniProt P49916),0.535,0.224,0.319,0.122
LETM1 C552 (UniProt O95202),-0.296,-0.0258,-0.0721,-0.0303
LMF2 C696 (UniProt Q9BU23),-0.202,0.165,-0.198,0.112
KNL1 C1291 (UniProt Q8NG31),-0.0652,0.167,-0.205,0.16
LRP1 C2517 (UniProt Q07954),-0.000915,0.628,0.0161,0.755
LEMD3 C547 (UniProt Q9Y2U8),-0.0592,0.0386,-0.23,-0.0727
LLGL1 C505 (UniProt Q15334),-0.0576,0.135,-0.157,0.189
KMT2D C2249 (UniProt O14686),-0.176,-0.0183,0.49,0.0894
LNPEP C103 (UniProt Q9UIQ6),-0.445,0.431,-0.258,0.268
KRR1 C142 (UniProt Q13601),-0.347,0.17,-0.567,0.284
LMO4 C73 (UniProt P61968),-0.0284,0.144,-0.0368,0.161
KIFC1 C212 (UniProt Q9BW19),0.0954,-0.137,-0.265,-0.0494
LIMS1 C222 (UniProt P48059),0.333,-0.462,0.135,-0.509
KMT2C C2873 (UniProt Q8NEZ4),0.0394,0.0971,-0.455,0.42
LEF1 C321 (UniProt Q9UJU2),-0.0591,0.117,-0.131,0.162
LIG1 C280 (UniProt P18858),0.292,0.298,-0.195,0.0764

# For convenience, some entries already given:
Target,log2 mean competition ratio ([1]; 50 µM),log2 mean competition ratio ([1]; 200 µM),log2 mean competition ratio ([2]; 50 µM),log2 mean competition ratio ([2]; 200 µM)
KRR1 C142 (UniProt Q13601),-0.347,0.17,-0.567,0.284
LMO4 C73 (UniProt P61968),-0.0284,0.144,-0.0368,0.161
KIFC1 C212 (UniProt Q9BW19),0.0954,-0.137,-0.265,-0.0494
LIMS1 C222 (UniProt P48059),0.333,-0.462,0.135,-0.509

# The listing continues.

Target,log2 mean competition ratio ([1]; 50 µM),log2 mean competition ratio ([1]; 200 µM),log2 mean competition ratio ([2]; 50 µM),log2 mean competition ratio ([2]; 200 µM)
KNL1 C2051 (UniProt Q8NG31),-0.152,0.202,-0.0886,-0.101
LEMD2 C261 (UniProt Q8NC56),-0.203,0.271,-0.0846,0.414
KIF5B C65 (UniProt P33176),-0.353,-0.207,0.171,-0.121
LCMT2 C133 (UniProt O60294),-0.0791,0.0147,-0.145,0.0602
LIMCH1 C333 (UniProt Q9UPQ0),0.0572,-0.0778,-0.107,-0.0803
KIF5B C294 (UniProt P33176),0.24,0.159,0.107,0.277
LRP1 C2561 (UniProt Q07954),-0.0952,0.449,0.0638,0.629
KLC1 C320 (UniProt Q07866),-0.00814,0.287,0.0616,0.236
LANCL2 C121 (UniProt Q9NS86),0.479,-0.364,-0.124,-0.161
LARP4 C76 (UniProt Q71RC2),-0.319,-0.248,0.57,-0.14
KNTC1 C967 (UniProt P50748),-0.223,-0.245,-0.0277,-0.192
LIN28B C187 (UniProt Q6ZN17),-0.229,0.086,0.152,0.18
LONRF3 C511,-0.163,,,0.123
KIF7 C1229,-0.0582,0.111,-0.0551,0.147
LCP1 C460 (UniProt P13796),0.334,0.126,0.381,0.075
LENG8 C600 (UniProt Q96PV6),0.168,0.0927,0.103,0.0219
KIF5C C66,-0.205,0.0971,-0.132,-0.00251
KMT2D C1909 (UniProt O14686),0.112,-0.0881,0.322,-0.127
LARP4B C679 (UniProt Q92615),-0.073,-0.102,-0.0457,-0.192
KIFBP C371 (UniProt Q96EK5),0.0938,0.229,-0.0323,0.00863
KNTC1 C475 (UniProt P50748),-0.0429,-0.209,0.125,-0.413
LEMD3 C254 (UniProt Q9Y2U8),,-0.0191,,0.197
LONP2 C372 (UniProt Q86WA8),0.146,-0.269,0.172,-0.302

Target,log2 mean competition ratio ([1]; 50 µM),log2 mean competition ratio ([1]; 200 µM),log2 mean competition ratio ([2]; 50 µM),log2 mean competition ratio ([2]; 200 µM)
KIFC1 C509 (UniProt Q9BW19),-0.00966,0.0619,0.0523,0.179
LDLR C34 (UniProt P01130),-0.17,0.407,-0.228,0.259
LNPEP C305 (UniProt Q9UIQ6),-0.0266,-0.546,0.0212,-0.309
LARP4B C633 (UniProt Q92615),0.535,0.397,0.85,0.302
KIZ C50 (UniProt Q2M2Z5),0.217,,0.0324,0.903
KNL1 C2338 (UniProt Q8NG31),-0.128,0.0257,0.111,0.0822
KLC4 C318 (UniProt Q9NSK0),-0.00981,0.649,0.407,0.586
LENG8 C500 (UniProt Q96PV6),-0.0558,0.434,-0.164,0.443
KTN1 C1105,-0.037,0.109,-0.158,0.118
KIF7 C667,0.236,0.301,-0.479,0.345
LRBA C1921,-0.0368,0.049,-0.421,0.0504
KLHL20 C25 (UniProt Q9Y2M5),-0.0851,0.173,-0.324,-0.0432
LIMS3;LIMS4 C10;(C10),-0.0545,-0.102,0.0666,-0.032
LONP1 C520 (UniProt P36776),0.267,0.0109,0.307,0.112
LMAN2L C200 (UniProt Q9H0V9),-0.307,0.301,-0.229,0.0982
KNOP1 C172 (UniProt Q1ED39),0.308,0.0532,-0.741,0.0322
KMT2A C1536 (UniProt Q03164),-0.0588,-0.0476,-0.41,0.0705
LARP4B C167 (UniProt Q92615),,0.182,0.312,0.223
KPNB1 C765,-0.117,-0.524,-0.39,-0.617
LRPPRC C863,0.202,-0.0855,0.516,-0.0457
LGR4 C339,-0.0551,-0.0385,0.143,-0.125
